Measurements published in patent US20080193932A1.
No constants are given. Whether binding was seen depends on the method and setting. For some assays here: Binding seen in cells or lysates may run through a third protein. Some entries that bind do so weakly or less than the wild type.

Chains of the proteins cited; added tags and fusions are not shown. Residues count along the entry.
UniProt P53762: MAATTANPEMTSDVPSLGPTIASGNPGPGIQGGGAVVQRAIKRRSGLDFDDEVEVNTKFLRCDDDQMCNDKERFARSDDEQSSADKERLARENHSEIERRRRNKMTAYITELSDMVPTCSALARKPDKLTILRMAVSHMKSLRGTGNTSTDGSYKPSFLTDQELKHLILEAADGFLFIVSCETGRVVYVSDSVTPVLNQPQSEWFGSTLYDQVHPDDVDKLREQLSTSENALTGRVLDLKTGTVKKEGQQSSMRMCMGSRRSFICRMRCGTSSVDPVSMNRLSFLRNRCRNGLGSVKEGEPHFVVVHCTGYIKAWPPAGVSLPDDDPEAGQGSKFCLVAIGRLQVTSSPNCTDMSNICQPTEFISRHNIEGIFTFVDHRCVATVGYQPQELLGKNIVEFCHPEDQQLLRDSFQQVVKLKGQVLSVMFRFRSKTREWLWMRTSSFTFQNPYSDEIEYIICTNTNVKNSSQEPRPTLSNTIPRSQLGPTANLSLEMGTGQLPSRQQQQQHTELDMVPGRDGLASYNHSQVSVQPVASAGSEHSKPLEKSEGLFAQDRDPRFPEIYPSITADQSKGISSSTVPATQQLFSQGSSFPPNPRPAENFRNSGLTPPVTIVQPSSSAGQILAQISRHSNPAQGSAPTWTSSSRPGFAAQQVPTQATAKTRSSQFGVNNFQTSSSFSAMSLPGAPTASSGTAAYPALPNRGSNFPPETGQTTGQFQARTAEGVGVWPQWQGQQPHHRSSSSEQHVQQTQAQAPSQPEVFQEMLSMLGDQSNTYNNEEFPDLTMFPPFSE
UniProt P30561, residues 1-805: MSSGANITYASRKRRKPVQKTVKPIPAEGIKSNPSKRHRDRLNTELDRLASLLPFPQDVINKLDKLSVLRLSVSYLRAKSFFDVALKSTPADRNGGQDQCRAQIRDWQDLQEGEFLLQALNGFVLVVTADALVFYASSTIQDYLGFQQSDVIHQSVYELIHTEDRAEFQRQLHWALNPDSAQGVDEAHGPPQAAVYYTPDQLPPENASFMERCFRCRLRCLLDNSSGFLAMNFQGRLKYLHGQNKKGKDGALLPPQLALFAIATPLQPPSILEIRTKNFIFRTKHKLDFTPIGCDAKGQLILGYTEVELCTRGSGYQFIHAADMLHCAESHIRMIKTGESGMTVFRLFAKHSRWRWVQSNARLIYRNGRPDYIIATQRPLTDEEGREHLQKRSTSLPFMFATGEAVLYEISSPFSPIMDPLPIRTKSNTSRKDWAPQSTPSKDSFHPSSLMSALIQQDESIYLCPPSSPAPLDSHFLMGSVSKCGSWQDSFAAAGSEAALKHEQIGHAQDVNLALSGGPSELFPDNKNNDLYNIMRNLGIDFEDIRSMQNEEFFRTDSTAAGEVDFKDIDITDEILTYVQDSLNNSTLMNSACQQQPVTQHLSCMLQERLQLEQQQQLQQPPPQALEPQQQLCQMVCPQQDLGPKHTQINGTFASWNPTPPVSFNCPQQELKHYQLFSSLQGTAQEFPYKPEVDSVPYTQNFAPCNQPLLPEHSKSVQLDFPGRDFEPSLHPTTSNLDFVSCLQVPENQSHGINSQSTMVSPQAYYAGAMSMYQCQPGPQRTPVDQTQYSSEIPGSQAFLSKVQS

How the values were obtained:
[1] = target: murine ARNT, translated in vitro in rabbit reticulocyte lysate from cDNA in pcDNA3 (mouse) (UniProt P53762); assay: electrophoretic mobility shift with DRE oligonucleotide, AhR and ARNT in RRL
[2] = target: murine ARNT, translated in vitro in rabbit reticulocyte lysate from cDNA in pcDNA3 (mouse) (UniProt P53762); assay: co-immunoprecipitation with anti-AhR antibody of in vitro translated AhR and Arnt mixed in RRL (DMSO, TCDD, EGCG, TCDD plus EGCG), SDS-PAGE, phosphorImager

murine aryl hydrocarbon receptor (AhR), translated in vitro in rabbit reticulocyte lysate from cDNA in pcDNA3 (from UniProt P30561 1-805)
binding [1]: binds
binding [2]: binds
